The list is a part of this screen's results and no random one: it is rich in T/C values a quarter to a half above the control, in often repeated tests (any T/C) and in doses without a T/C. Further doses and runs are listed elsewhere. T/C gives the treated animals as a percentage of the vehicle group. Some doses have a count of surviving animals in place of a T/C: the source files T/C as zero there, which appears to mark a toxic dose or a test without result, not a measured value. Some survivor counts are full or nearly so, which does not show that the dose was tolerated: survival well below the control is almost never listed, so the zero probably covers shortened survival too. Survivors were counted at the toxicity check, usually on the fifth day, unless a day is given; later deaths do not show. Schedule codes are those of the source, read here as Q, the interval in days (D) or hours (H), X, the number of doses. Some schedules carry Z or #; the key to these is not given. For survival time, the PubChem record calls one and a half times the control and up active, and a quarter to a half above the control has no call in these data; cut-offs in other NCI protocols can differ.
Test system: L1210 leukemia ip in BDF1 mice, survival T/C
Test: NCI In Vivo Anticancer Drug Screen. Data for tumor model L1210 Leukemia (intraperitoneal) in B6D2F1 (BDF1) mice
Details: T/C endpoint: mean survival time, higher T/C = longer survival
[1] = dose: 100.0 mg/kg/injection, schedule: Q01DX001 (ip), vehicle: saline
[2] = dose: 200.0 mg/kg/injection, schedule: Q01DX001 (ip), vehicle: saline
[3] = dose: 400.0 mg/kg/injection, schedule: Q01DX001 (ip), vehicle: saline
[4] = dose: 200.0 mg/kg/injection, schedule: Q04DX003 (ip), vehicle: Klucel (hydroxypropylcellulose) (HPC)

For COc1cc(N(CCCl)CCCl)c(OC)cc1/C=N\NC(=O)CN(C)C, the T/C (dose: 50.0 mg/kg/injection, schedule: Q01DX001 (ip), vehicle: saline) was 135 % of control, the survivor count (dose: 50.0 mg/kg/injection, schedule: Q01DX015 (ip), vehicle: saline) was 6 of 6 and the T/C (dose: 66.6 mg/kg/injection, schedule: Q01DX001 (ip), vehicle: saline) was 135 % of control. For the same molecule, the survivor count (dose: 72.0 mg/kg/injection, schedule: Q01DX015 (ip), vehicle: saline) was 6 of 6, the T/C [1] was 149 % of control and the survivor count (dose: 100.0 mg/kg/injection, schedule: Q01DX015 (ip), vehicle: saline) was 0 of 6. For the same molecule, the survivor count [2] was 0 of 4 and the survivor count [3] was 0 of 4.

CC(C)=CCC(CCN(C)C)(C(N)=O)c1cccc2ccccc12 (stereo unspecified) was tested, and the survivor count (dose: 100.0 mg/kg/injection, schedule: Q04DX003 (ip), vehicle: Klucel (hydroxypropylcellulose) (HPC)) was 0 of 6, the survivor count [4] was 0 of 6 and the survivor count (dose: 400.0 mg/kg/injection, schedule: Q04DX003 (ip), vehicle: Klucel (hydroxypropylcellulose) (HPC)) was 0 of 6.

For NC(=S)N/N=C/c1ccc(Br)cn1, the survivor count (dose: 25.0 mg/kg/injection, schedule: Q01DX009 (ip), vehicle: saline with Tween-80) was 0 of 3.

C=C1CC(C)(c2ccc(S(=O)(=O)N3CCCC3)cc2)OC1=O (stereo unspecified) was tested, and the survivor count (dose: 175.0 mg/kg/injection, schedule: Q01DX009 (ip), vehicle: Klucel (hydroxypropylcellulose) (HPC)) was 3 of 6 and the survivor count (dose: 350.0 mg/kg/injection, schedule: Q01DX009 (ip), vehicle: Klucel (hydroxypropylcellulose) (HPC)) was 0 of 6.

For C=C1C(=O)OC2C1C(OC(=O)/C(=C/CO)CO)CC1(CO1)C1CC=C(C)C21 (stereo unspecified), the survivor count (dose: 25.0 mg/kg/injection, schedule: Q01DX001 (ip), vehicle: water) was 0 of 6, the survivor count (dose: 50.0 mg/kg/injection, schedule: Q01DX001 (ip), vehicle: water) was 0 of 6 and the survivor count (dose: 75.0 mg/kg/injection, schedule: Q01DX001 (ip), vehicle: other) was 0 of 6. For the same molecule, the survivor count (dose: 100.0 mg/kg/injection, schedule: Q01DX001 (ip), vehicle: water) was 0 of 6, the survivor count (dose: 150.0 mg/kg/injection, schedule: Q01DX001 (ip), vehicle: other) was 0 of 6 and the survivor count (dose: 300.0 mg/kg/injection, schedule: Q01DX001 (ip), vehicle: other) was 0 of 6.

O=c1/c(=C\c2ccc(Cl)c(Cl)c2)sc2n1CCN=2 was tested, and the survivor count [2] was 6 of 6.

With N#CCc1ccc(Cl)c(Cl)c1 the survivor count [1] was 3 of 6, the survivor count [2] was 0 of 6 and the survivor count [3] was 0 of 6.

With CCOC(=O)c1ccc2cc(C(=O)c3ccccc3)ccc2n1 the survivor count (dose: 200.0 mg/kg/injection, schedule: Q01DX009 (ip), vehicle: saline) was 6 of 6.

With O=C(COc1ccccc1)c1ccccc1 the survivor count (dose: 100.0 mg/kg/injection, schedule: Q04DX002 (ip), vehicle: Klucel (hydroxypropylcellulose) (HPC)) was 3 of 3.

With C=C(CCCCC)C(=O)/C=C/c1ccc(Cl)c(Cl)c1 the survivor count (dose: 100.0 mg/kg/injection, schedule: Q04DX002 (ip), vehicle: DMSO) was 0 of 3, the survivor count (dose: 200.0 mg/kg/injection, schedule: Q04DX002 (ip), vehicle: DMSO) was 0 of 3 and the survivor count (dose: 400.0 mg/kg/injection, schedule: Q04DX002 (ip), vehicle: DMSO) was 0 of 3.

In the case of Cc1ccc(C)c(NC(=O)N2CCN(C)CC2)c1, the survivor count (dose: 400.0 mg/kg/injection, schedule: Q01DX009 (ip), vehicle: saline) is reported as 3 of 6.

With Cc1ccc(S(=O)(=O)OCC2OC(n3cnc4c(NC=O)ncnc43)C(OC=O)C2OC=O)cc1 (stereo unspecified) the survivor count (dose: 200.0 mg/kg/injection, schedule: Q01DX005 (ip), vehicle: saline) was 5 of 6.

In the case of CC1CC(C)OS(=O)O1 (stereo unspecified), the survivor count (dose: 150.0 mg/kg/injection, schedule: Q01DX Z (ip), vehicle: saline) is reported as 6 of 6.

CCOc1ccc(/C=N\N=C\c2ccc(OCC)cc2)cc1 was tested, and the survivor count (dose: 200.0 mg/kg/injection, schedule: Q01DX009 (ip), vehicle: Klucel (hydroxypropylcellulose) (HPC)) was 6 of 6, the survivor count [4] was 6 of 6 and the survivor count (dose: 400.0 mg/kg/injection, schedule: Q01DX009 (ip), vehicle: Klucel (hydroxypropylcellulose) (HPC)) was 6 of 6.

COc1ccccc1CNC1CCCCC1 was tested, and the survivor count (dose: 150.0 mg/kg/injection, schedule: Q01DX001 (ip), vehicle: saline) was 2 of 6 and the survivor count (dose: 300.0 mg/kg/injection, schedule: Q01DX001 (ip), vehicle: saline) was 1 of 6.

With CC(C)(C)OC(=O)CSC#N the survivor count (dose: 40.0 mg/kg/injection, schedule: Q01DX001 (ip), vehicle: saline) was 1 of 4 and the survivor count (dose: 80.0 mg/kg/injection, schedule: Q01DX001 (ip), vehicle: saline) was 0 of 4.

O=C1c2ccccc2-c2ccc(-c3ccccc3)c3cccc1c23 was tested, and the survivor count (dose: 100.0 mg/kg/injection, schedule: Q04DX002 (ip), vehicle: saline with Tween-80) was 3 of 3.

With CC1(C)OC(=O)C(=Cc2c(Cl)cccc2Cl)C(=O)O1 the survivor count (dose: 400.0 mg/kg/injection, schedule: Q01DX009 (ip), vehicle: saline with Tween-80) was 0 of 6.

From PubChem BioAssay AID248 (DTP/NCI, 2004)
